1 compound from publication PMC6338774, “Syntheses and cytotoxicity of phosphatidylcholines containing ibuprofen or naproxen moieties” (Scientific Reports, 2019) can be followed below.

A value given as a limit tells only on which side of the number the result lay.

Series [1] concerns human promyelocytic leukemia HL-60 cells. In words: WST-1 cell proliferation assay, HL-60 cells. Format: cell-based. The conditions noted are these: WST-1, 72 h. The method, then: (§1) Human promyelocytic leukemia HL-60 cells and human colon cancer cell line Caco-2 were obtained from the American Type Culture Collection (Manassas, VA, USA). […] (Institute of Biotechnology, Faculty of Environment and Natural Sciences, Brandenburg University of Technology Cottbus-Senftenberg, Senftenberg, Germany)[34] were cultured in DMEM medium supplemented with 10% fetal bovine serum (FBS, Invitrogen, Carlsbad, USA), 2 mM glutamine and antibiotics (complete DMEM). Cells (4 × 10^3/well) were grown for 24 h in 96-well plates (Sarstedt, Germany) in appropriate complete medium at 37 °C and atmosphere containing 5% CO2. […] After indicated periods of time, WST-1 mixture was added to each well, and the cells were cultured for additional 6 h. The absorbance at 450 nm was measured on an EnSpire 2300 Multilabel Reader (Perkin-Elmer, USA), and data were analyzed using the program EnSpire 9.0 (Perkin-Elmer, USA). The experiments were performed in triplicates and repeated at least three times independently. Results were presented as mean IC50 (concentration of the tested compound, that inhibits cell proliferation by 50%) ± standard deviation.
In general terms: Formazan colour is commonly taken as a measure of viable cells.

Series [2] has as its system human colon carcinoma Caco-2 cells. Kind of series: WST-1 cell proliferation assay, Caco-2 cells. It is filed as cell-based. The conditions noted are these: WST-1, 72 h, concentrations 50-200 µM, mean ± SD, na = not active in range tested. Here is the method:
as §1, with “independently.” for “independently. Results were presented as mean IC50 (concentration of the tested compound, that inhibits cell proliferation by 50%) ± standard deviation.”

What is called IC50 is the concentration that inhibits the measured activity by half. Take `COc1ccc2cc([C@H](C)C(=O)O)ccc2c1` [Compound 2, naproxen]: the “concentration up to which non-toxic, HL-60 cells” value in series [1] is at most 100 µM. The compound further came in with an IC50 in series [2] of 113 ± 28.6 µM.
